The record followed here is PMC8379183.

Protein sequences, listed by entry. Tags and fused reporters are not part of them.
UniProt Q9UJQ4: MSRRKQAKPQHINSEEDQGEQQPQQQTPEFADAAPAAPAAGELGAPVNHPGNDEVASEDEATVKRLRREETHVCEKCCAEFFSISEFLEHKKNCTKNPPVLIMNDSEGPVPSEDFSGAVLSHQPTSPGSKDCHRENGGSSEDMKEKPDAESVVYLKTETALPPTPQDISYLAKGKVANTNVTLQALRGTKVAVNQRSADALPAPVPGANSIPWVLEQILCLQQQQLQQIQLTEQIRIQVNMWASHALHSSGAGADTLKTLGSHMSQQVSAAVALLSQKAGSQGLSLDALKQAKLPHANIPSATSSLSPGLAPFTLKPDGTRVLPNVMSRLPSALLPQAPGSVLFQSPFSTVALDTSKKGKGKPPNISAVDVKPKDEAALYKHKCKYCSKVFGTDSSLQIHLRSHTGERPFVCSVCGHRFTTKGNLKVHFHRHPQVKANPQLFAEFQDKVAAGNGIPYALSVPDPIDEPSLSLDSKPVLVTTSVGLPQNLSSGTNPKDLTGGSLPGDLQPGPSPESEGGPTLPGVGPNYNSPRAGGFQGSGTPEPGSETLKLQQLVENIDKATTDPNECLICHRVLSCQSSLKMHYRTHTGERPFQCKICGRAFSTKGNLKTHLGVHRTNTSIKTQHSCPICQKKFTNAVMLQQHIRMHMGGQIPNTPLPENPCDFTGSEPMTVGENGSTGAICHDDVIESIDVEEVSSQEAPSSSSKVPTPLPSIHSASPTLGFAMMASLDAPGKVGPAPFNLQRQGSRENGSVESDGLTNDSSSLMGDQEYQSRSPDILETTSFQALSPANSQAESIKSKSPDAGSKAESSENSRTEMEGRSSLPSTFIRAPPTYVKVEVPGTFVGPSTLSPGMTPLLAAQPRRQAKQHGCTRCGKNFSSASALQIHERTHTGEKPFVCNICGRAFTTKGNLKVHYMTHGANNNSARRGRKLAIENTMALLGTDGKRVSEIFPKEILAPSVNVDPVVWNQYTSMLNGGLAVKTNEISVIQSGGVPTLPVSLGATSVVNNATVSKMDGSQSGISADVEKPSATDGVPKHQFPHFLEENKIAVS
UniProt Q92769: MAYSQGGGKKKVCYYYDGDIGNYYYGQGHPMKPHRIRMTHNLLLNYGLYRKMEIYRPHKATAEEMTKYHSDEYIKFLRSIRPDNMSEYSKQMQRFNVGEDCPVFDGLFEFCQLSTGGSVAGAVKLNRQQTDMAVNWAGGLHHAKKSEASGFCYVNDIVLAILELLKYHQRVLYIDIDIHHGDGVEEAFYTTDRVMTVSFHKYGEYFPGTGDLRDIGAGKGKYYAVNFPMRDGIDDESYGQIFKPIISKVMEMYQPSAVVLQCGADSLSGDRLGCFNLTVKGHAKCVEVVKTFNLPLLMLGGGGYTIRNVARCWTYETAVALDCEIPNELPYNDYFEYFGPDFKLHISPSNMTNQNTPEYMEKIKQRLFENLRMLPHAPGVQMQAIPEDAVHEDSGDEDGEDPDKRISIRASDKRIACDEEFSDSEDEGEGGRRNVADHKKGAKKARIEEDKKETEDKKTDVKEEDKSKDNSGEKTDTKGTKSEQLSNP

These are yes or no findings as the source states them, for the method shown. Binding seen in cells or lysates may run through a third protein. Some results given as binding are weak or reduced against the parent protein; the word gives no strength.

The experiment concerns the target SALL4 (human (endogenous in M010817)) (UniProt Q9UJQ4). The experiment is described as follows: co-IP; SALL4 antibody (abcam ab29112) or IgG coupled to Dynabeads M-270 Epoxy; lysate of M010817 cells in Extraction buffer; 30 min at 4 °C; six washes; eluate analysed by western blot for SALL4 and HDAC2. In general terms: A western blot detects proteins with antibodies after separation by electrophoresis.

In the case of “histone deacetylase (HDAC) 2 (from UniProt Q92769 1-488) (enzyme)”, the binding result is given as “binds”.
